Source: PubChem BioAssay AID493014 (National Center for Advancing Translational Sciences (NCATS), 2011)
Hit rate of the full screen: of about 340,000 compounds, about 170 (0.05%) were called active. This list was built around the results that the source calls inconclusive (neither active nor inactive); the mix of calls is not that of the screen. Calls come from the whole dose curve; as a rule, active = well fitted inhibition curve with a large enough effect in the signal ratio, with a control signal flat (not every such curve was filed as active); inconclusive = small, poorly fitted or top-dose-only effect, or effect the other way, or a change in a side signal; inactive = flat fitted curve, though single readings scatter; the % refers to the signal ratio. Where the call is inconclusive, the potency comes from a doubtful curve fit.

Assay: qHTS Assay to Find Inhibitors of Chronic Active B-Cell Receptor Signaling;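 for activity change, negative = inhibition: plate controls were basal doxycycline-induced cells for no effect and cells given 10 µM MG132 for full effect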
Conditions: ABC-DLBCL IkBa-CBG/CBR reporter, luminescence ratio (green luciferase fused to IkBa over red control in TMD8 lymphoma cells), 4 h; activity change, negative = inhibition: at 46.1 µM (top of the series)
In short: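 TMD8 ABC-DLBCL cells carrying doxycycline-inducible green luciferase fused to IkappaBalpha plus unfused red luciferase were exposed to compounds (up to 46 uM) for 4 hrs at 37C. Activity came from the overlap-corrected green/red luminescence ratio.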
Potency is the fitted concentration of half-maximal effect.

| SMILES | activity change, negative = inhibition | Potency |
| --- | --- | --- |
| O=c1c2ccccc2c(/C=N/c2nnc(Cc3ccccc3)s2)c(O)n1-c1ccc(Cl)cn1 | inconclusive: 6.82% |  |
| Cc1ccc(C(=O)/C=C/c2ccc3c(c2)OCO3)o1 | inconclusive: -8.55% |  |
| O=C(CSc1nnc(-c2n[nH]c3ccccc23)n1-c1ccccc1)Nc1cccc(Cl)c1 | inconclusive: -7.9% |  |
| c1ccc(OCCSc2nnc3sc4ccccc4n23)cc1 |  | inconclusive: 35.5 µM [rising, single point] |
| Cc1ccc(CNCc2ccccc2Cl)cc1 |  | inconclusive: 1.84 µM [falling, partial curve, poor fit] |
| COc1ccc(C(=O)N/N=C/c2ccc(SC)cc2)cc1 | inconclusive: -15.7% |  |
| Cc1cnc(NC(=O)CSc2ccccc2)s1 |  | inconclusive: 1.16 µM [rising, partial curve, poor fit] |
| CSc1nc(N)nc(SCC(=O)Nc2ccc(Cl)cc2)c1C#N | inactive: 13.9% |  |
| O=C(Cn1c(=O)oc2cc(S(=O)(=O)N3CCCCCC3)ccc21)NC1CCCCCCC1 | inactive: -0.388% |  |
| COCc1ccc(C(=O)N2CCCCC2C(=O)Nc2ccc(-n3nc(C)cc3C)cc2)o1 (stereo not given) | inactive: 8.04% |  |
| COC(=O)c1ccc(CNC(=O)CN(CCC(C)C)S(=O)(=O)c2ccc3c(c2)OCCO3)cc1 | inconclusive: 5.83% |  |
| CCc1c(C)sc(NC(=O)c2cc(CC(C)C)on2)c1C#N |  | inconclusive: 2.91 µM [rising, single point] |
| Cc1ccc(C(=O)Oc2ccc(C(=O)COC(=O)c3cnccn3)cc2)cc1 | inconclusive: 1.2% |  |
| O=C(/C(=C/O)N=Nc1cccc(C(F)(F)F)c1)c1ccccc1 | inactive: -5.92% |  |
| Cc1cc(C)c(NC(=O)OCCN2CCOCC2)c(C)c1 | inactive: 1.28% |  |
| CC(C)(C)OC(=O)NCCCC[C@H](NC(=O)c1[nH]cnc1C(=O)Nc1ccc(CNC(=O)OC(C)(C)C)cc1)C(=O)OC(C)(C)C | inconclusive: 4.15% |  |
| CCCS(=O)(=O)N1CCCC(C(=O)Oc2ccccc2Cl)C1 (stereo not given) | inactive: -0.904% |  |
| O=C1N(c2ccccc2C(F)(F)F)O[C@@]1(c1ccccc1)C1CCCC1 | inactive: 6.81% |  |
| CCOC(=O)/C=C1\SCC(=O)N1CC(=O)NC12CC3CC(CC(C3)C1)C2 | inconclusive: 9.51% |  |
| Cc1ccc2c(c1)N(CCC(=O)NC1CCCCC1C)C(=O)CO2 (stereo not given) | inconclusive: 0.655% |  |

| SMILES | activity change, negative = inhibition | Potency |
| --- | --- | --- |
| Brc1ccc(CSc2ncnc3nc[nH]c23)cc1 |  | inconclusive: 18.4 µM [falling, single point] |
| O=C(Nc1ccc(-c2csc(Nc3ccccc3)n2)cc1)c1cc([N+](=O)[O-])cc(C(F)(F)F)c1 | inactive: 6.62% |  |
| CCOc1ccc(/C=C/c2nc(C#N)c(NCCCOC)o2)cc1 | inactive: -14.9% |  |
| Cc1ccc(NC(=O)CCc2c(C)nc3ncnn3c2C)cc1 |  | inconclusive: 11.2 µM [falling, partial curve] |
| Cc1cc(NC(=O)CSc2nnc(CNc3ccc(F)cc3)n2C2CCCCC2)no1 | inconclusive: 2.44% |  |
| Cc1ccc(/C=N/NC(=O)c2nnn(-c3nonc3N)c2C(C)C)o1 | inactive: 2.81% |  |
| CCCCCCSc1ncc(C#N)c(N)n1 |  | inconclusive: 0.1 µM [rising, full curve, poor fit] |
| CCOC(=O)C1=C(Cc2ccc(F)cc2)C(=O)c2ccccc2C1=O | inconclusive: -0.965% |  |
| Cc1ccc(C)c(CNC(=O)c2sc3ncnc(N(C)C4CCCCC4)c3c2C)c1 | inactive: 8.53% |  |
| COc1ccc(-c2cc(C(F)(F)F)n3nc(C(=O)N4CCCCC4)cc3n2)cc1 | inconclusive: 4.19% |  |
| COC(=O)c1c(C)[nH]c(C(=O)NCc2ccco2)c1C | inconclusive: 6.95% |  |
| COc1ccc(NC(=O)C2CCCO2)cc1Cl (stereo not given) | inconclusive: 9.12% |  |
| COc1ccc(/C=C(\C#N)C(=O)NCC(c2ccc(F)cc2)N2CCOCC2)cc1 (stereo not given) | inconclusive: -22.8% |  |
| CC(C)CC(=O)N/N=C/c1c(N)n(C)c(=O)n(C)c1=O | inconclusive: 6.31% |  |
| CC[C@]12c3[nH]c4ccccc4c3CCN1C(=O)C(CC(=O)NCCCN(C)C)C[C@@H]2C(=O)N1CCN(C(=O)c2ccco2)CC1 (stereo not given in full) | inactive: -1.77% |  |
| Cc1ccc2nc(Cl)c(/C=N/Nc3ccc(C(=O)O)cc3)cc2c1 | inconclusive: 438% |  |
| COc1ccc(-c2c(C#CC(C)(C)O)c3ccccc3n2C)cc1 | inconclusive: 2.75% |  |
| CCOC(=O)Cc1csc(NC(=O)NC2(C(F)(F)F)Oc3ccc(Cl)cc3O2)n1 (stereo not given) | inconclusive: -1.03% |  |
| O=C1CSC(c2cccnc2)N1c1ccc(F)cc1 (stereo not given) |  | inconclusive: 5.8 µM [falling, full curve] |

Single records (already shown):
CCOc1ccc(/C=C/c2nc(C#N)c(NCCCOC)o2)cc1 is entered as activity change, negative = inhibition: inactive: -14.9%
COc1ccc(-c2c(C#CC(C)(C)O)c3ccccc3n2C)cc1 is entered as activity change, negative = inhibition: inconclusive: 2.75%
CCCCCCSc1ncc(C#N)c(N)n1 is entered as Potency: inconclusive: 0.1 µM [rising, full curve, poor fit]
